These are yes or no findings as the source states them, for the method shown. Binding seen in cells or lysates may run through a third protein. Some results given as binding are weak or reduced against the parent protein; the word gives no strength. One block for each molecule: values may come before it.
Columns and labels:
[1] = molecular target: OCRL1, endogenous in Caco-2 cells (human (endogenous in Caco-2)) (UniProt Q01968); assay: co-IP; antibodies to OCRL1, pre-cleared Caco-2 cell lysate; control normal sheep immunoglobulin; blot for ZO-1
[2] = molecular target: GFP tagged human OCRL1 (wild-type, isoform b = 893 amino acids) (human) (UniProt Q01968); assay: co-IP; GFP precipitated from Caco-2 cells transiently transfected with GFP-OCRL1; control rabbit immunoglobulin; immunoblot for ZO-1
[3] = molecular target: Zonula occludens-1 (ZO-1), endogenous in MDCK cells (dog (endogenous in MDCK)) (UniProt O97758); assay: co-IP; antibodies to ZO-1 on Protein G beads, pre-cleared MDCK cell lysates; control rabbit Ig; lysis buffer 10 mM HEPES, 142.5 mM KCl, 0.2% NP-40, pH 7.4; 4°C for two hours; blots for ZO-1/2/3 or OCRL1

Chains of the proteins cited; added tags and fusions are not shown. Lines headed by an entry give the natural chain unless they say otherwise; changes in a name come on top. A line that says so, or that is headed by a name, gives the form on record, which may keep a tag or linker.
UniProt Q01968: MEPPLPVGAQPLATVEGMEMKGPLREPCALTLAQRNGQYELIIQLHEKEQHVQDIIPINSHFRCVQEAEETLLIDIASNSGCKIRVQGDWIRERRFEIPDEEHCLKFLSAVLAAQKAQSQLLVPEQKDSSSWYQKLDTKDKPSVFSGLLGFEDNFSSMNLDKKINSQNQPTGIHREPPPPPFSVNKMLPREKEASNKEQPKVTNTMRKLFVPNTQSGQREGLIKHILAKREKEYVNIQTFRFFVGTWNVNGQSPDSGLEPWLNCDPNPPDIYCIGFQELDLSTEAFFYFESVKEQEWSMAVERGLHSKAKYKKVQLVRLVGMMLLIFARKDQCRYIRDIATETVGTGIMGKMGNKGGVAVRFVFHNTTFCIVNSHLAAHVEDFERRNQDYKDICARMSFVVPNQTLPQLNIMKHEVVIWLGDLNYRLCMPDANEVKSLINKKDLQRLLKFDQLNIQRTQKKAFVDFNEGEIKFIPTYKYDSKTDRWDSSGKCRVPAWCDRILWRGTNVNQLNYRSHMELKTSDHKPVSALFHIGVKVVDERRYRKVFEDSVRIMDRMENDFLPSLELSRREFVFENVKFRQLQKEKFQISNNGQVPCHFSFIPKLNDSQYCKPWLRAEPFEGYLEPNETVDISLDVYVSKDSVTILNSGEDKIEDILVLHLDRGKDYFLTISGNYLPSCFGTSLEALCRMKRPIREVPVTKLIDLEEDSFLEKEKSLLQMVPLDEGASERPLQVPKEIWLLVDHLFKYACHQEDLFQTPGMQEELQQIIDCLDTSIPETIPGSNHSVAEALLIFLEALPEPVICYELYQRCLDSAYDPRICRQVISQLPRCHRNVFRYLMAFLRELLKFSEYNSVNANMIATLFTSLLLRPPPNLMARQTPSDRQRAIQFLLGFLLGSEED
GFP tagged human OCRL1 (wild-type, isoform b = 893 amino acids) (Q01968, form named): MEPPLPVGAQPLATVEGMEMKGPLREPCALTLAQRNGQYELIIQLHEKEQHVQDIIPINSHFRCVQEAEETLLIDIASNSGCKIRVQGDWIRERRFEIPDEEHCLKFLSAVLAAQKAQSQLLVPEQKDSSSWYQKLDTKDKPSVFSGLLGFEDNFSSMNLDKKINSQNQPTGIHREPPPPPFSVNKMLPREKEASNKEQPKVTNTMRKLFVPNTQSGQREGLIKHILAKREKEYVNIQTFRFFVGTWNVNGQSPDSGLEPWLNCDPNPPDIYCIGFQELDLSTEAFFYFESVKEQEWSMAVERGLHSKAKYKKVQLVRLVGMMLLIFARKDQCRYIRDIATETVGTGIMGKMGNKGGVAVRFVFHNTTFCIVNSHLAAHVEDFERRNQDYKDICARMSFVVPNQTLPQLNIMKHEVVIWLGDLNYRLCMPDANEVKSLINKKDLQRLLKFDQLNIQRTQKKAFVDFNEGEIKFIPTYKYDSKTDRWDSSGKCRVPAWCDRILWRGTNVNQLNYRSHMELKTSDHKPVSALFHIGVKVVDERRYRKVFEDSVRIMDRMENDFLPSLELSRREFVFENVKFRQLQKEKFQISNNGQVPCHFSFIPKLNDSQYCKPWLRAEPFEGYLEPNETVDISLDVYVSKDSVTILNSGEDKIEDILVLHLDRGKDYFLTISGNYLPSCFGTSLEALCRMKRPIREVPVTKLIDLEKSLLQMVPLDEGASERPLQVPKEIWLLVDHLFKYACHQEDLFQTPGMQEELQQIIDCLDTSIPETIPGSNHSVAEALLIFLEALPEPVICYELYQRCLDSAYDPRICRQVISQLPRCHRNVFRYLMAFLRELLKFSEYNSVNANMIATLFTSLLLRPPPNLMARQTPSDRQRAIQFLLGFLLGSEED
UniProt O97758: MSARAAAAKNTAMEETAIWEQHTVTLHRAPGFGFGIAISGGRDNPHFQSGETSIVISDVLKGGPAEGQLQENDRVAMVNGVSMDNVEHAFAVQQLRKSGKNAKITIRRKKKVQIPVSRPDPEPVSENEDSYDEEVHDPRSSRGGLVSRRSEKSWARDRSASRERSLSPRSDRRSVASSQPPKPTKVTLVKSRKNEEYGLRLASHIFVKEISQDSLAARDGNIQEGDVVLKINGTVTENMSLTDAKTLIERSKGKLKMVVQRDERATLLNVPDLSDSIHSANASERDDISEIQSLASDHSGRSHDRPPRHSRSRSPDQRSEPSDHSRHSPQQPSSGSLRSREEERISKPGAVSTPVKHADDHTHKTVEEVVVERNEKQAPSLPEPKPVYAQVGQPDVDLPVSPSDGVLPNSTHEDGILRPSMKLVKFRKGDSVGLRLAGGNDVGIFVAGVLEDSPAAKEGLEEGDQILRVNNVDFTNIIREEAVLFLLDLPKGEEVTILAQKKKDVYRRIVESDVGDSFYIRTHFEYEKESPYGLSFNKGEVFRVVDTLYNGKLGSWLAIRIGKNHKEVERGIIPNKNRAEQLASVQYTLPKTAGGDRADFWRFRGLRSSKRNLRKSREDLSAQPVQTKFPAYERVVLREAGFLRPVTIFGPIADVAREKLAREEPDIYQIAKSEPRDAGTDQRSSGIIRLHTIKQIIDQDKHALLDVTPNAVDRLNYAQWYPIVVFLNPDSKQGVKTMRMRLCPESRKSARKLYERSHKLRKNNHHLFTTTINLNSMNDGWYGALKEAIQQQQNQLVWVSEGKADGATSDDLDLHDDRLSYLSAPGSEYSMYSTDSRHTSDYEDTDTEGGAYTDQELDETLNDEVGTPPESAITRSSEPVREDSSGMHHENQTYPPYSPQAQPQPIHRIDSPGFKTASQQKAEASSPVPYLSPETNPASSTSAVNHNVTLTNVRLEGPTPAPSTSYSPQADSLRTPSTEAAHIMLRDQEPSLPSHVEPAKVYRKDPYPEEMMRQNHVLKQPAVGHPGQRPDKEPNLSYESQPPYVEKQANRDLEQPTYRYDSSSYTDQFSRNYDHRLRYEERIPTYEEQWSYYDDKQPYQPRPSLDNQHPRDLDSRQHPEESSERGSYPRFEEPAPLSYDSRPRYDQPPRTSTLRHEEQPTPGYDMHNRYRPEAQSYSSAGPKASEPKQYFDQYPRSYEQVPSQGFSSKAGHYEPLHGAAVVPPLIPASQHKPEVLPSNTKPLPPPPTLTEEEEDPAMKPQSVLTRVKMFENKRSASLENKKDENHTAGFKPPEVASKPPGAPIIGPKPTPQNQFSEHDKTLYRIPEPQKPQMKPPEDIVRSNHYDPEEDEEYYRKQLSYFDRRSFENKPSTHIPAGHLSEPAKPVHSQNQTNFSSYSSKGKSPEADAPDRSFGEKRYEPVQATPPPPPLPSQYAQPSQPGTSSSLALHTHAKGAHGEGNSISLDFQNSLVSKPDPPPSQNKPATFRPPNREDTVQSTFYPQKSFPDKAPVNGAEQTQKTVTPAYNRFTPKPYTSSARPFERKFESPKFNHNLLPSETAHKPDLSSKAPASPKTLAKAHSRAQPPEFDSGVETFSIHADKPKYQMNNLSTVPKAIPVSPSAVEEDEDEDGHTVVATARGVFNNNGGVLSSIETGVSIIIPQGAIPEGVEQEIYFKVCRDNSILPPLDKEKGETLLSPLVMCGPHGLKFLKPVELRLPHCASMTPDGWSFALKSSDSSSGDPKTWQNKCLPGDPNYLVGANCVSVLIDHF
UniProt Q07157: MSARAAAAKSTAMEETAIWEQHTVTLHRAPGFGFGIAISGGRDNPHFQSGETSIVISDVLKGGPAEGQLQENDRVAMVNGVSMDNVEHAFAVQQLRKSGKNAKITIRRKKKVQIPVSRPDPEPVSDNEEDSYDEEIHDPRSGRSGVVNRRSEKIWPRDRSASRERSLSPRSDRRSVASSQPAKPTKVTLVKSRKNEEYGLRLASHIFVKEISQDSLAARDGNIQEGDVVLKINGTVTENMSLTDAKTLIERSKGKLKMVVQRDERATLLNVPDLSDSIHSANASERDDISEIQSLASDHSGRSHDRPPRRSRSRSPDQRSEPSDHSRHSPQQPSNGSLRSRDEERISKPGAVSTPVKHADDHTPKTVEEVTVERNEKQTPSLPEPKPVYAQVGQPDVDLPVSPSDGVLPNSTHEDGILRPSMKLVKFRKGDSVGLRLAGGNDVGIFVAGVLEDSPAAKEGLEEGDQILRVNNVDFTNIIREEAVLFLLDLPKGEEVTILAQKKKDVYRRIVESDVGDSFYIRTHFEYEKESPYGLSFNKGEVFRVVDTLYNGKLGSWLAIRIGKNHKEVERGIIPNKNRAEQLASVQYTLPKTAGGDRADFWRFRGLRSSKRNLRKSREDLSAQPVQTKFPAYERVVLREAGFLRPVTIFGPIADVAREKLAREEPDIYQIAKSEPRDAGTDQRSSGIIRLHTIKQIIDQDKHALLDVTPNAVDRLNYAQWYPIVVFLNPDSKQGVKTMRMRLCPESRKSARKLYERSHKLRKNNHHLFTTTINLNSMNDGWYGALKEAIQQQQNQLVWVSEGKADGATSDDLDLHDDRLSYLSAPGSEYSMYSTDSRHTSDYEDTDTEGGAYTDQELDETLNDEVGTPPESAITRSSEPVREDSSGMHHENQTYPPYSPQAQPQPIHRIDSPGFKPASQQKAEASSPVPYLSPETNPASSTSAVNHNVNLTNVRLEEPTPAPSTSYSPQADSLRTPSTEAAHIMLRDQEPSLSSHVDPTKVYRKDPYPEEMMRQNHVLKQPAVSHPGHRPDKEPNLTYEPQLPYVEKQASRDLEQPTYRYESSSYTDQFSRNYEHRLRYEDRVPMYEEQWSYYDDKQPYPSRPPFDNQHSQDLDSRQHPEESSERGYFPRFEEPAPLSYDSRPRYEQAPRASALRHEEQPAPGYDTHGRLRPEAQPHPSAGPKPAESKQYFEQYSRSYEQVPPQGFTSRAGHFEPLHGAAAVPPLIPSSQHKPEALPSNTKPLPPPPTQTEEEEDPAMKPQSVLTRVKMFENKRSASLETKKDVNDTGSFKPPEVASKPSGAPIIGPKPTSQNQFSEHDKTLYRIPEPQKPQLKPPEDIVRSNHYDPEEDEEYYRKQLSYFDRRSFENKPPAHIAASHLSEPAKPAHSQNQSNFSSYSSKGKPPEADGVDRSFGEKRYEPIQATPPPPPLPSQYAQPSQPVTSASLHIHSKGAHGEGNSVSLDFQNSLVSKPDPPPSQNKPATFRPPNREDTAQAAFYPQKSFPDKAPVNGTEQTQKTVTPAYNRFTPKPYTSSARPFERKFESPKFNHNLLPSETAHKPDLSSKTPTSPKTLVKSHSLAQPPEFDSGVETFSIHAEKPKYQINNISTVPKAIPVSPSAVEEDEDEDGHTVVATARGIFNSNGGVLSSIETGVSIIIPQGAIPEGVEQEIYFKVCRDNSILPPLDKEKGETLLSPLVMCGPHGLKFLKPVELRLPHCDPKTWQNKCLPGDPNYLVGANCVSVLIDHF

binding [1]: binds
binding [2]: binds
Molecule: Zonula occludens-1 (ZO-1), endogenous in Caco-2 cells (from UniProt Q07157 1-1748)

binding [3]: binds
B1: Zonula occludens-2 (ZO-2), endogenous in MDCK cells (protein, UniProt Q95168 1-1174)
chain: MEELIWEQYTVTLQKDSKRGFGIAVSGGRDNPHFENGETSIVISDVLPGGPADGLLQENDRVVMVNGTPMEDVLHSFAVQQLRKSGKIAAIVVKRPRKVQLAPPQGSLPVDEDDRAFEVMDEFDGRSARSGYSERSRRSSHGGRSRSWEDSPERGRPHERAWSQERERSRGRSLERGLDHDDDYRRPRERSRGRSLERGLDHDDDYGRPGERSHGMSTDRGYDRGYDRGYDRGYDRTYSPEAEYGRRTQPDARHAGSRSRSREHLRSRSPSPELRGRPDHAGQPDSDRPIGVLLMKSKANEEYGLRLGSQIFIKQMTRTALATKDGNLHEGDIILKINGTVTENMSLTDARKLIEKSRGKLQLVVLRDSKQTLINIPSLNDSDSEIEDISEIESNRSFSPEERRQQYSDYDYHSSNEKLKERPNSREDMQNRWSRMGATPTPFKSMGDIASVVGTENSKEPRYQEEPPAPQPKAAPRTFLRPSPEDEAIYGPNTKMVRFKKGDSVGLRLAGGNDVGIFVAGIQEGTSAEQEGLQEGDQILKVNTQDFRGLVREDAVLYLLEIPKGEMVTILAQSRADVYRDILACGRGDSFFIRSHFECEKETPQSLAFSRGEVFRVVDTLYDGKLGHWLAVRIGNELEKGLIPNKSRAEQMASVQNAQRDNAGDRADFWRMRGQRSGMKKNLRKSREDLTAAVSVSTKFPAYERVLLREAGFKRPVVLFGPIADIALEKLANELPDLFQTAKTEPKDAGSEKSSGVVRLNTVRQIIEQDKHALLDVTPKAVDLLNYTQWFPIVIFFNPDSRQGVKTMRQRLNPTSNKSSRKLYDQANKLKKTCAHLFTATINLNSANDSWFGSLKDTIQHQQGEAVWVSEGKMEGMDDDPEDRMSYLTAMGADYLSCDSRLISDFEDTDGEGGAYTDNELDEPAEEPLVSSITRSSEPVQHEESIRKPSPEPRAQMRRAASRDQLRDSSPPPAFKPEPPKAKTQNREESFDISRSHDYKSNPSAVAGNEVSGASTRSCPPPIAAKPSFGRSILKPSTPVPSPESEEVGEGSEEQEGAPKSVLGKVKIFEKMDHKARLQRMQELQEAQNARIEIAQKHPDIYAVPIKTHKPDPGLSQHTSSRPPEPQKGPSRLYQDPRGSYGSDAEEEEYRQQLSEHSKRGYYSQPSRYRDTEL

binding [3]: binds
B2: Zonula occludens-3 (ZO-3), endogenous in MDCK cells (protein, UniProt O62683 1-898)
chain: MEELTIWEQHTATLCRDPRRGFGIAISGGRDRASGSVVVSDVVPGGPADGRLQTGDHVVMVNGVSMESVTSTFAIQILKTCTKLANITVKRPRKIQLPATKAGTSGRGRQGLEEEADCGQGYDGDTSSGSGRSWDKRSRRARTGRRNQAGSRGRRSPGGNSEANGLALVSGFKRLPRQDVHMRPVKSVLVRRTESEEFGVTLGSQIFIKHITDSGLAARNRGLQEGDLILQINGVSSENLSLSDTRRLIEKSEGKLTLLVLRDRGQFLVNIPPAVSDSDSDSSFLDDISALGSELSQAVPSHVPPPPPHAQRSLDSDGTDSPRDSPPLRRENSLDSRTISEPDAPRHSSYDIYRVPSSQSAEDRGYSPDSRVVRFHKGTTIGLRLAGGNDVGIFVSGVQEGSPADGQGIQEGDQILQVNDVPFRNLTREEAVQFLVALPPGEEVELVTQRNEDIFRKMVQSRVGDSFYIRTHFELEASPPSGLGFTRGDVFHVLDTLCPGPGPSGARGTHWLAVRMGRDLREQERGIIPNQSRAEQLASLESAQRAVGAGPGASVGSSARAEFWRLRGLRRGAKKSTQRSREDLSALTRQGHYPPYERVVLREASFKRPVVILGPVADIAMQKLTAEMPDQFGIADSVLRTDSPSKIIKLDTVRVIAEKNKHALLDVTPSAVERLNYVQYYPIVVFCAPESRAALKALRQWLAPASRRSARRLYAQAQKLRKHSEHLFTATIPLRGTSDTWYQELKAVVREQQTRPIWTAEDQLDNSSEDNLELPHRGLADSSADLSCDSRVNSDYETDGEGYTDGEGYTDVDEGPPAPALARSSEPVLEEEPRSPRDHGRASGARGAQVDRHPYHSQGRQDSMRTYGQEALKKKFTRARDVESSDEDGYDWGPATDL

Source: PMC3162020
